Measurements taken from PMC12624062.
No constants are given. Whether binding was seen depends on the method and setting. Binding seen in cells or lysates may run through a third protein. These calls come from enrichment with a bait or labelling near it, and not all partners need be listed.

Chains of the proteins cited; added tags and fusions are not shown.
UniProt Q8CDG1: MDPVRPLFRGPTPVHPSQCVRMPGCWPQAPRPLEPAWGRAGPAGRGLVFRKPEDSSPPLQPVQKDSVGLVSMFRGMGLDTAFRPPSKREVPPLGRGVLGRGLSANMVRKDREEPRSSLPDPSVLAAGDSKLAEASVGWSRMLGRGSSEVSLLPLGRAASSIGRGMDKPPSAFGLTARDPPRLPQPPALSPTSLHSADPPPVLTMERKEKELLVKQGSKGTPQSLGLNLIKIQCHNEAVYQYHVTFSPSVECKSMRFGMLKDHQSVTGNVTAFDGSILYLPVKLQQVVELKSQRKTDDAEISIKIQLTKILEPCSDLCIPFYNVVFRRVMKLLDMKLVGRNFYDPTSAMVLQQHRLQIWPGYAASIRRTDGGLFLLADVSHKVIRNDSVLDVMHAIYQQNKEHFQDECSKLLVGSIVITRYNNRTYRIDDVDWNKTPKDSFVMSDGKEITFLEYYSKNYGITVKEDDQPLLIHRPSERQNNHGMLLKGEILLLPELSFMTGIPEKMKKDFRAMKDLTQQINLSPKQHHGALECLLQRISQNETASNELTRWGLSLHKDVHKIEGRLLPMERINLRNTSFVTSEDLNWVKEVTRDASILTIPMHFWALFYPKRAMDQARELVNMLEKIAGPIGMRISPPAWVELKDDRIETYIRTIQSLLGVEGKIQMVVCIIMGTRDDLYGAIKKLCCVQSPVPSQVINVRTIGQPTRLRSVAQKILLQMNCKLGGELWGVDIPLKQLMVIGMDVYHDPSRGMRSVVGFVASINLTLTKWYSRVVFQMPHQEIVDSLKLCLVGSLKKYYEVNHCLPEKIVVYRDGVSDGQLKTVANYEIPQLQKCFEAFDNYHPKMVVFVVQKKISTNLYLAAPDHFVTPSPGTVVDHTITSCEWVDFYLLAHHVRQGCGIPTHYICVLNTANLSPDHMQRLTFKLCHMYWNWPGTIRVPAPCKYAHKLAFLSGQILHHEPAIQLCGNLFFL
UniProt Q9D5P4: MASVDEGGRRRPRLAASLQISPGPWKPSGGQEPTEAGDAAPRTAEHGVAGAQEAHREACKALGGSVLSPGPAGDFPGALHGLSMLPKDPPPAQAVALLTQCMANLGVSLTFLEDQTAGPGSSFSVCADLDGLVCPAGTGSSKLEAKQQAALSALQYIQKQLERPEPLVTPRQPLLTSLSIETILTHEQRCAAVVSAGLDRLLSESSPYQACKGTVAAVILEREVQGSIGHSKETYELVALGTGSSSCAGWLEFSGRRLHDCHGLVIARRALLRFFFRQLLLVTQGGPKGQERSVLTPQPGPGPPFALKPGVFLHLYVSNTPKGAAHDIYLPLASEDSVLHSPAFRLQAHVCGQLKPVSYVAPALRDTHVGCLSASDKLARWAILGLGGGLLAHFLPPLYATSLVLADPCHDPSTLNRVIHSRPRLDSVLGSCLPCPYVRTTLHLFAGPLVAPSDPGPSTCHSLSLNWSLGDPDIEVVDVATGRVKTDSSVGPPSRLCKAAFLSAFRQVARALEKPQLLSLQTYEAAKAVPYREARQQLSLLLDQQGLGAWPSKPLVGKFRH
UniProt Q9JMB7: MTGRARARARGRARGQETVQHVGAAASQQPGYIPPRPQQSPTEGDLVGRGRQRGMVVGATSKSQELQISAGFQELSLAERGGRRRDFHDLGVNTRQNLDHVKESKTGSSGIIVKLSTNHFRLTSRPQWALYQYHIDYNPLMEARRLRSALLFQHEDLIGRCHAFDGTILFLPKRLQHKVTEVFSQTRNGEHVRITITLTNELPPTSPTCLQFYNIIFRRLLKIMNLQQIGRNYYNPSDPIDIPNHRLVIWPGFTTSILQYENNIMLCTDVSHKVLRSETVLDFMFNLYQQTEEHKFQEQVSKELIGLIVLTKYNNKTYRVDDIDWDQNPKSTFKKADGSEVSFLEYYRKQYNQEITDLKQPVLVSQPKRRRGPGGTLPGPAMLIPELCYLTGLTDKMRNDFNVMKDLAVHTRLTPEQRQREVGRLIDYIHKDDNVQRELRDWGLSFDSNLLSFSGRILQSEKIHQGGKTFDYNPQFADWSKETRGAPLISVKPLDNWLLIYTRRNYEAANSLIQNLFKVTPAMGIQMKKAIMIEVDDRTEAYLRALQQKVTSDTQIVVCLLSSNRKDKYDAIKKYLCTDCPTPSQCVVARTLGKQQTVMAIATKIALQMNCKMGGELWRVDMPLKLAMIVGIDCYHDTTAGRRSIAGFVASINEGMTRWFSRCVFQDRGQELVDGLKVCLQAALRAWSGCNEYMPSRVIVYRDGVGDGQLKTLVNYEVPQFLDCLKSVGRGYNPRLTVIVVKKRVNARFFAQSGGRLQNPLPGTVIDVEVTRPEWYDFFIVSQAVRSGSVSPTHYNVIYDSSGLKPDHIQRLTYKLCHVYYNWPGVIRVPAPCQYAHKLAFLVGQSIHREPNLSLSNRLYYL

Tests used:
[1] = molecular target: PIWIL2 (endogenous, mouse testis) (mouse (endogenous in testis)) (UniProt Q8CDG1); assay: affinity purification with mass spectrometry; P20 wild-type mouse testis lysates; IP with PIWIL2, ASZ1 or TDRD1 antibodies against rabbit IgG control; Protein A/G agarose; LC-MS; n = 3
[2] = molecular target: T1, TDRD1 (endogenous, mouse testis) (mouse (endogenous in testis)) (UniProt Q99MV1); assay: as above
T1 sequence: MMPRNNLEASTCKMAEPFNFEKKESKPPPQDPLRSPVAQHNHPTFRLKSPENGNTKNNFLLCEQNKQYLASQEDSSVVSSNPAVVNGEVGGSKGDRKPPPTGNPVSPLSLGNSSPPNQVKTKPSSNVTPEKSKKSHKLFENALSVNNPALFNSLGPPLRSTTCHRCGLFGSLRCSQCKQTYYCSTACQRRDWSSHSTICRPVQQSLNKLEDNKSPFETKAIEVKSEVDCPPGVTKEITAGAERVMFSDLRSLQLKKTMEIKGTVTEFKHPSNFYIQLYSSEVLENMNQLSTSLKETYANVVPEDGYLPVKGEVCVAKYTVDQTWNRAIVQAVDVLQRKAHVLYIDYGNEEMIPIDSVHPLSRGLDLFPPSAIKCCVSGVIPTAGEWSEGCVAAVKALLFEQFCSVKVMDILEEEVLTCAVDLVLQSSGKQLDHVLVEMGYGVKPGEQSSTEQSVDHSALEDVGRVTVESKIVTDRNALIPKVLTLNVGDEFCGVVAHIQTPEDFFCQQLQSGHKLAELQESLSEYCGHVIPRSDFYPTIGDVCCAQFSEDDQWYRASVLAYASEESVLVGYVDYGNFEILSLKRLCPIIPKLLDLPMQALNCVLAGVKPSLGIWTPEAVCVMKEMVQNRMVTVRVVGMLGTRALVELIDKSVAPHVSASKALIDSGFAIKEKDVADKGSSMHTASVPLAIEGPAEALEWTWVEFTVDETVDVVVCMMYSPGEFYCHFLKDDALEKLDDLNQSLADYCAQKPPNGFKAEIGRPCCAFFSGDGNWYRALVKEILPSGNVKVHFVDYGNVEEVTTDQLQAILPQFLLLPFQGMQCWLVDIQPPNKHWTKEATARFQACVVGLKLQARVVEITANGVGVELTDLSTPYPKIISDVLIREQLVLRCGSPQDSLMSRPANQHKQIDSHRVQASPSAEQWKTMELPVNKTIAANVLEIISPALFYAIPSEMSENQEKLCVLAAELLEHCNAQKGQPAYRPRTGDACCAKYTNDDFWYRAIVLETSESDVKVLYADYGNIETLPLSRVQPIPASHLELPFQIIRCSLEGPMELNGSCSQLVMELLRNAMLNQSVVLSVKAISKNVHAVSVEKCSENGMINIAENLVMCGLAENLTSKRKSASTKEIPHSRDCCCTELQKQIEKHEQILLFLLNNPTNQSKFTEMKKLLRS

binding [1]	binding [2]	Substance
binds	–	ADAD2 (endogenous, mouse testis) (from UniProt Q9D5P4 1-561)
binds	binds	PIWIL1 (endogenous, mouse testis) (from UniProt Q9JMB7 1-862)
